Literature values, collected in patent US6399581B1, “Compound possessing potent thrombin receptor antagonist activity” (Harbor Branch Oceanographic Institution, Inc., priority 1999, dated 2002).
At least one compound was matched to its structure with a doubt left.

Conditions: cited from earlier work

## CC(C)CC(O)C[C@@H](C)[C@H]1CC=C2C3=C(CC[C@@]21C)[C@@]1(C)CC[C@H](O[C@@H]2O[C@H](CO)[C@H](O)[C@H](O)[C@H]2O[C@@H]2O[C@H](CO)[C@H](O)[C@H](O)[C@H]2O)[C@@H](C)[C@@H]1CC3 (stereo partly shown) [Eryloside A]
  Antitumor activity: possesses antitumor
